Results on one molecule are retold here after US20090226913A1.

Results are given in words; binding and its absence hold for the method and conditions named. In cells and extracts the contact can be indirect. Some binding calls cover weakened binding; strength is not graded here. Tags and fused reporters may be left off the sequences shown.

The target of the assay is T1, Dok-2 protein (human) (UniProt O60496).
T1 sequence (chain, phosphotyrosine at residue 299): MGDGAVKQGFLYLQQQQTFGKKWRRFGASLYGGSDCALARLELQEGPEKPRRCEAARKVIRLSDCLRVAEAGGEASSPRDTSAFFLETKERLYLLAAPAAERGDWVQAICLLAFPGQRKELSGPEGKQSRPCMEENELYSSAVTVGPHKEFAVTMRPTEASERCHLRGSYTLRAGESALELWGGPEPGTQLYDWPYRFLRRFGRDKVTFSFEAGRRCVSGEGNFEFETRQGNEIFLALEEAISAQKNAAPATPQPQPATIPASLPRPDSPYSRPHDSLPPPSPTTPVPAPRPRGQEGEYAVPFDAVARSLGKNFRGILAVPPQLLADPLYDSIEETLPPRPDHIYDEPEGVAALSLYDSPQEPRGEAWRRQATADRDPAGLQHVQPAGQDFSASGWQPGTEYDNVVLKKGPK
Kind of assay: GST pull-down from NP40 lysate of CML cells; SDS-PAGE, Dok-2 band excised and identified by MALDI-TOF.

B1: GST fusion of the SH2 domain of SHIP1 (protein, UniProt Q92835 5-101, looked up, not shown: a dimerising Fc or GST)
chain: WNHGNITRSKAEELLSRTGKDGSFLVRASESISRAYALCVLYRNCVYTYRILPNEDDKFTVQASEGVSMRFFTKLDQLIEFYKKENMGLVTHLQYPV
With B1, the binding entry is “binds”.
